These are yes or no findings as the source states them, for the method shown. In cells and extracts the contact can be indirect. Some results given as binding are weak or reduced against the parent protein; the word gives no strength.
Molecular target: T1, syntaxin 17 (Stx17), rat liver (rat (endogenous in rat liver)) (UniProt Q9Z158)
T1 sequence: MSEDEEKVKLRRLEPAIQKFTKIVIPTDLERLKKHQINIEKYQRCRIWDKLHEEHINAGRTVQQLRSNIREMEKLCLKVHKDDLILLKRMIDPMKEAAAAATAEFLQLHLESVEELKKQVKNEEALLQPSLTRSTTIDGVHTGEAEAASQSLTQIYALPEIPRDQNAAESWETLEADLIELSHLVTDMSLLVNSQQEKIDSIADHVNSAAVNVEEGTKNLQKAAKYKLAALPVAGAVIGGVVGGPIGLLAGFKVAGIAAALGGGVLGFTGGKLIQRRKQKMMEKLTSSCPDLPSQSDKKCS
Assay: co-IP; rat liver; anti-Stx 17 for immunoprecipitation, anti-Vamp 8 for western blot; rats treated with D-GalN/LPS with or without GA

binding: binds
B1: vesicle-associated membrane protein 8 (Vamp8), rat liver (protein, UniProt Q9WUF4 1-100)
chain: MEASGSAGNDRVRNLQSEVEGVKNIMTQNVERILARGENLDHLRNKTEDLEATSEHFKTTSQKVARKFWWKNVKMIVIICVIVLIILILIILFATGTIPT

Source: PMC8119493
